The target of the assay is T1, alpha-dystroglycan (rabbit skeletal muscle) (rabbit (endogenous in skeletal muscle)) (UniProt Q28685).
T1 sequence: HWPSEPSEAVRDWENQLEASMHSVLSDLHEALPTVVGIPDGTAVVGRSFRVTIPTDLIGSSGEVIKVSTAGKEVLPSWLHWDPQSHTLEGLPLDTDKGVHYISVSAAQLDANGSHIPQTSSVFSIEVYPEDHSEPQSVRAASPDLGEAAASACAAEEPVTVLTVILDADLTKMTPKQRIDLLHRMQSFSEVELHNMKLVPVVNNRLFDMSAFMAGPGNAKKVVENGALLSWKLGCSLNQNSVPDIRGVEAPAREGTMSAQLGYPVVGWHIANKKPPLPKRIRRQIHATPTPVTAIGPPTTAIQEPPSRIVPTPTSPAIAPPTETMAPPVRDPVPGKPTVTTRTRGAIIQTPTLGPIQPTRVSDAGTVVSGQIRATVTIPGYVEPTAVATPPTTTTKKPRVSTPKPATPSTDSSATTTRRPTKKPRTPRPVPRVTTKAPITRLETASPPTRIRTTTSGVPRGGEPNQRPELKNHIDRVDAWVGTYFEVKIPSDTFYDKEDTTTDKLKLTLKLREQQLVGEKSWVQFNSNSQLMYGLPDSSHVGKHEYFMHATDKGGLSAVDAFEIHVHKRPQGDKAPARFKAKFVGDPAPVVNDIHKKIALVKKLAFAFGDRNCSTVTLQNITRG
The experiment in a line: co-IP; anti-α-DG antibody IIH6 coupled to CNBr-activated Sepharose; WGA-enriched, digitonin-solubilised rabbit skeletal muscle microsomes; 0.1% digitonin, 50 mM Tris-HCl pH 7.4, 150 mM NaCl; eluted in 0.1 M triethylamine pH 11.5; Western blot. In general terms: A western blot detects proteins with antibodies after separation by electrophoresis.

The record followed here is article PMC5083101.

No constants are given. Whether binding was seen depends on the method and setting. In cells and extracts the contact can be indirect. A result given as binding can be weak or reduced; the word gives no strength.

For “alpha-dystrobrevin (rabbit skeletal muscle)”, the binding entry is recorded as “binds”.
To “gamma-sarcoglycan (rabbit skeletal muscle)” belongs “binds”.
